Laboratory results from publication PMC11381323.
No constants are given. Whether binding was seen depends on the method and setting. In cells and extracts the contact can be indirect. Some results given as binding are weak or reduced against the parent protein; the word gives no strength.

By UniProt entry, the sequences of proteins in these tests, tags left out.
UniProt Q9UKV8: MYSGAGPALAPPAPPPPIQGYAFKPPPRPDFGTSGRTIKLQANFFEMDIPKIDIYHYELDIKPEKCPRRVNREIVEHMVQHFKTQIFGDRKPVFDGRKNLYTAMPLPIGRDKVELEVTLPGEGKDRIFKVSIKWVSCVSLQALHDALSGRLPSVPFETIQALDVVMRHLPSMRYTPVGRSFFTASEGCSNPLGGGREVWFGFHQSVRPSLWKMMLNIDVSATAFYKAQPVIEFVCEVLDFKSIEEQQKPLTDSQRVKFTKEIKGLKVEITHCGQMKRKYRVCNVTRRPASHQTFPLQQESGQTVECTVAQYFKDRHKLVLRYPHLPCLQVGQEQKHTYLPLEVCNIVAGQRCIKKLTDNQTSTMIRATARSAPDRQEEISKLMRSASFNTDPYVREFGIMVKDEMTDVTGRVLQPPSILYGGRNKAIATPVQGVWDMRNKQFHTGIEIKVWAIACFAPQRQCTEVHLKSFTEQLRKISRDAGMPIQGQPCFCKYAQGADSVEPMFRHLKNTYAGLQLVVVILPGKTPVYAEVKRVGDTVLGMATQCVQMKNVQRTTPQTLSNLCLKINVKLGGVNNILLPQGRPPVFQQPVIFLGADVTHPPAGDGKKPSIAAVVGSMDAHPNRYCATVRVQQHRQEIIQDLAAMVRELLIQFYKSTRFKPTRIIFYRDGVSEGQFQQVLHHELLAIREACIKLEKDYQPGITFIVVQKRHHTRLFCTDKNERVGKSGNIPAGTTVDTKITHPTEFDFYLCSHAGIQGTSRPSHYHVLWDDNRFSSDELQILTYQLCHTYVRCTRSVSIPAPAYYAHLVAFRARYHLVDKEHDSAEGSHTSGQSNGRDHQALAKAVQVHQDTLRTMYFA

Assays:
[1] = target: Argonaute 2 (AGO2) (human (endogenous in A375, SHSY5Y and HeLa)) (UniProt Q9UKV8); test: co-IP; AGO1-4 immunoprecipitation with Flag-tagged T6B peptide from cytoplasmic and nuclear lysates of A375 and SHSY5Y Lamin A KO cells; immunoblots of AGO2 and FAM120A (Figure 5K, L)
[2] = target: Argonaute 2 (AGO2) (human (endogenous in A375, SHSY5Y and HeLa)) (UniProt Q9UKV8); test: condition: only in WT cells (Lamin A not knocked out); co-IP; co-immunoprecipitation of endogenous AGO2 and FAM120A, immunoblots; A375 and SHSY5Y WT cells (Figure 5E, F)
[3] = target: Argonaute 2 (AGO2) (human (endogenous in A375, SHSY5Y and HeLa)) (UniProt Q9UKV8); test: co-IP; co-immunoprecipitation of endogenous AGO2 and FAM120A, immunoblots; A375 and SHSY5Y Lamin A KO cells (Figure 5E, F)

- binding [1]: binds
- binding [2]: no binding
- binding [3]: binds
B1: Constitutive coactivator of PPAR-gamma-like protein 1, FAM120A (protein, UniProt Q9NZB2 1-1118)
chain: MGVQGFQDYIEKHCPSAVVPVELQKLARGSLVGGGRQRPPQTPLRLLVDADNCLHRLYGGFYTDWVSGGQWNHMLGYLAALAKACFGGNIELFVFFNGALEKARLHEWVKRQGNERQTAQQIVSHVQNKGTPPPKVWFLPPVCMAHCIRLALIRFHVKVAQSIEDHHQEVIGFCRENGFHGLVAYDSDYALCNIPYYFSAHALKLSRNGKSLTTSQYLMHEVAKQLDLNPNRFPIFAALLGNHILPDEDLASFHWSLLGPEHPLASLKVRAHQLVLPPCDVVIKAVADYVRNIQDTSDLDAIAKDVFQHSQSRTDDKVIRFKRAIGYYSATSKPMSFHPPHYLAARPGPFGMPGMVPPHVPPQMLNIPQTSLQAKPVAPQVPSPGGAPGQGPYPYSLSEPAPLTLDTSGKNLTEQNSYSNIPHEGKHTPLYERSSPINPAQSGSPNHVDSAYFPGSSTSSSSDNDEGSGGATNHISGNKIGWEKTGSHSEPQARGDPGDQTKAEGSSTASSGSQLAEGKGSQMGTVQPIPCLLSMPTRNHMDITTPPLPPVAPEVLRVAEHRHKKGLMYPYIFHVLTKGEIKIAVSIEDEANKDLPPAALLYRPVRQYVYGVLFSLAESRKKTERLAFRKNRLPPEFSPVIIKEWAAYKGKSPQTPELVEALAFREWTCPNLKRLWLGKAVEDKNRRMRAFLACMRSDTPAMLNPANVPTHLMVLCCVLRYMVQWPGARILRRQELDAFLAQALSPKLYEPDQLQELKIENLDPRGIQLSALFMSGVDMALFANDACGQPIPWEHCCPWMYFDGKLFQSKLLKASREKTPLIDLCDGQADQAAKVEKMRQSVLEGLSFSRQSHTLPFPPPPALPFYPASAYPRHFGPVPPSQGRGRGFAGVCGFGGPYGETVATGPYRAFRVAAASGHCGAFSGSDSSRTSKSQGGVQPIPSQGGKLEIAGTVVGHWAGSRRGRGGRGPFPLQVVSVGGPARGRPRGVISTPVIRTFGRGGRYYGRGYKNQAAIQGRPPYAASAEEVAKELKSKSGESKSSAMSSDGSLAENGVMAEEKPAPQMNGSTGDARAPSHSESALNNDSKTCNTNPHLNALSTDSACRREAALEAAVLNKEE
